The list shows a part of the results.
Legend:
Assay in all cases: glycan array binding signal (z-score within array); higher = stronger binding
Settings in all cases: glycan notation: IUPAC condensed, linker removed
Fuc(a1-2)Gal = molecular target: Fuc(a1-2)Gal
Method in brief: (§1)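 Glycan array data were curated from 3228 arrays in the Consortium for Functional Glycomics database and kept only where the protein sequence was available. Glycan names were converted to IUPAC-condensed notation, and columns mapping to the same glycan were averaged. The binding signal is a within-array Z-score, averaged across arrays of the same protein sequence at different concentrations or buffers and across linkers. Negative Z-scores can be read as non-binding.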

Fuc(a1-2)Gal(b1-3)GalNAc = molecular target: Fuc(a1-2)Gal(b1-3)GalNAc
Method in brief: as §1

[1] = molecular target: Fuc(a1-2)Gal(b1-3)GalNAc(a1-3)[Fuc(a1-2)]Gal(b1-4)Glc
Method in brief: as §1

[2] = molecular target: Fuc(a1-2)Gal(b1-3)GalNAc(a1-3)[Fuc(a1-2)]Gal(b1-4)GlcNAc
Method in brief: as §1

[3] = molecular target: Fuc(a1-2)Gal(b1-3)GalNAc(b1-3)Gal
Method in brief: as §1

[4] = molecular target: Fuc(a1-2)Gal(b1-3)GalNAc(b1-3)Gal(a1-4)Gal(b1-4)Glc
Method in brief: as §1

[5] = molecular target: Fuc(a1-2)Gal(b1-3)GalNAc(b1-4)[Neu5Ac(a2-3)]Gal(b1-4)Glc
Method in brief: as §1

Fuc(a1-2)Gal(b1-3)GlcNAc = molecular target: Fuc(a1-2)Gal(b1-3)GlcNAc
Method in brief: as §1

[6] = molecular target: Fuc(a1-2)Gal(b1-3)GlcNAc(b1-2)Man(a1-3)[Fuc(a1-2)Gal(b1-3)GlcNAc(b1-2)Man(a1-6)]Man(b1-4)GlcNAc(b1-4)GlcNAc
Method in brief: as §1

[7] = molecular target: Fuc(a1-2)Gal(b1-3)GlcNAc(b1-2)Man(a1-3)[Fuc(a1-2)Gal(b1-3)GlcNAc(b1-2)Man(a1-6)]Man(b1-4)GlcNAc(b1-4)[Fuc(a1-6)]GlcNAc
Method in brief: as §1

[8] = molecular target: Fuc(a1-2)Gal(b1-3)GlcNAc(b1-3)Gal(b1-4)Glc
Method in brief: as §1

[9] = molecular target: Fuc(a1-2)Gal(b1-3)GlcNAc(b1-3)GalNAc
Method in brief: as §1

[10] = molecular target: Fuc(a1-2)Gal(b1-3)GlcNAc(b1-3)[Fuc(a1-2)Gal(b1-3)GlcNAc(b1-6)]GalNAc
Method in brief: as §1

[11] = molecular target: Fuc(a1-2)Gal(b1-3)GlcNAc(b1-3)[Fuc(a1-3)[Gal(b1-4)]GlcNAc(b1-6)]Gal(b1-4)Glc
Method in brief: as §1

[12] = molecular target: Fuc(a1-2)Gal(b1-3)GlcNAc(b1-3)[Gal(b1-4)GlcNAc(b1-6)]Gal(b1-4)Glc
Method in brief: as §1

[13] = molecular target: Fuc(a1-2)Gal(b1-3)GlcNAc(b1-3)[Neu5Ac(a2-6)Gal(b1-4)GlcNAc(b1-6)]Gal(b1-4)Glc
Method in brief: as §1

[14] = molecular target: Fuc(a1-2)Gal(b1-3)GlcNAc6S
Method in brief: as §1

[15] = molecular target: Fuc(a1-2)Gal(b1-3)[Fuc(a1-4)]GlcNAc
Method in brief: as §1

[16] = molecular target: Fuc(a1-2)Gal(b1-3)[Fuc(a1-4)]GlcNAc(b1-2)Man(a1-3)[Fuc(a1-2)Gal(b1-3)[Fuc(a1-4)]GlcNAc(b1-2)Man(a1-3)]Man(b1-4)GlcNAc(b1-4)GlcNAc
Method in brief: as §1

[17] = molecular target: Fuc(a1-2)Gal(b1-3)[Fuc(a1-4)]GlcNAc(b1-2)Man(a1-3)[Fuc(a1-2)Gal(b1-3)[Fuc(a1-4)]GlcNAc(b1-2)Man(a1-6)]Man(b1-4)GlcNAc(b1-4)GlcNAc
Method in brief: as §1

[18] = molecular target: Fuc(a1-2)Gal(b1-3)[Fuc(a1-4)]GlcNAc(b1-2)Man(a1-3)[Fuc(a1-2)Gal(b1-3)[Fuc(a1-4)]GlcNAc(b1-2)Man(a1-6)]Man(b1-4)GlcNAc(b1-4)[Fuc(a1-6)]GlcNAc(b1-4)[Fuc(a1-6)]GlcNAc
Method in brief: as §1

[19] = molecular target: Fuc(a1-2)Gal(b1-3)[Fuc(a1-4)]GlcNAc(b1-3)[Fuc(a1-3)[Gal(b1-4)]GlcNAc(b1-6)]Gal(b1-4)Glc
Method in brief: as §1

[20] = molecular target: Fuc(a1-2)Gal(b1-3)[Fuc(a1-4)]GlcNAc(b1-3)[Gal(b1-4)GlcNAc(b1-6)]Gal(b1-4)Glc
Method in brief: as §1

[21] = molecular target: Fuc(a1-2)Gal(b1-4)Fuc(a1-3)]GlcNAc(b1-2)Man(a1-3)[Fuc(a1-2)Gal(b1-4)[Fuc(a1-3)]GlcNAc(b1-2)Man(a1-6)]Man(b1-4)GlcNAc(b1-4)GlcNAc
Method in brief: as §1

Fuc(a1-2)Gal(b1-4)Glc = molecular target: Fuc(a1-2)Gal(b1-4)Glc
Method in brief: as §1

Fuc(a1-2)Gal(b1-4)Glc6S = molecular target: Fuc(a1-2)Gal(b1-4)Glc6S
Method in brief: as §1

Fuc(a1-2)Gal(b1-4)GlcNAc = molecular target: Fuc(a1-2)Gal(b1-4)GlcNAc
Method in brief: as §1

[22] = molecular target: Fuc(a1-2)Gal(b1-4)GlcNAc(b1-2)Man
Method in brief: as §1

[23] = molecular target: Fuc(a1-2)Gal(b1-4)GlcNAc(b1-2)Man(a1-3)[Fuc(a1-2)Gal(b1-4)GlcNAc(b1-2)Man(a1-6)]Man(b1-4)GlcNAc(b1-4)GlcNAc
Method in brief: as §1

[24] = molecular target: Fuc(a1-2)Gal(b1-4)GlcNAc(b1-2)Man(a1-3)[Fuc(a1-2)Gal(b1-4)GlcNAc(b1-2)Man(a1-6)]Man(b1-4)GlcNAc(b1-4)[Fuc(a1-6)]GlcNAc
Method in brief: as §1

[25] = molecular target: Fuc(a1-2)Gal(b1-4)GlcNAc(b1-2)[Fuc(a1-2)Gal(b1-4)GlcNAc(b1-4)]Man(a1-3)[Fuc(a1-2)Gal(b1-4)GlcNAc(b1-2)Man(a1-6)]Man(b1-4)GlcNAc(b1-4)GlcNAc
Method in brief: as §1

[26] = molecular target: Fuc(a1-2)Gal(b1-4)GlcNAc(b1-3)Gal(b1-4)GlcNAc
Method in brief: as §1

[27] = molecular target: Fuc(a1-2)Gal(b1-4)GlcNAc(b1-3)Gal(b1-4)GlcNAc(b1-2)Man(a1-3)[Fuc(a1-2)Gal(b1-4)GlcNAc(b1-3)Gal(b1-4)GlcNAc(b1-2)Man(a1-6)]Man(b1-4)GlcNAc(b1-4)GlcNAc
Method in brief: as §1

[28] = molecular target: Fuc(a1-2)Gal(b1-4)GlcNAc(b1-3)Gal(b1-4)GlcNAc(b1-3)Gal(b1-4)GlcNAc
Method in brief: as §1

[29] = molecular target: Fuc(a1-2)Gal(b1-4)GlcNAc(b1-3)GalNAc
Method in brief: as §1

[30] = molecular target: Fuc(a1-2)Gal(b1-4)GlcNAc(b1-3)[Fuc(a1-2)Gal(b1-4)GlcNAc(b1-6)]GalNAc
Method in brief: as §1

[31] = molecular target: Fuc(a1-2)Gal(b1-4)GlcNAc(b1-3)[Fuc(a1-3)[Gal(b1-4)]GlcNAc(b1-6)]Gal(b1-4)Glc
Method in brief: as §1

B1: CRT-1 (Homo sapiens), P27797 (protein)
chain: MLLSVPLLLGLLGLAVAEPAVYFKEQFLDGDGWTSRWIESKHKSDFGKFVLSSGKFYGDEEKDKGLQTSQDARFYALSASFEPFSNKGQTLVVQFTVKHEQNIDCGGGYVKLFPNSLDQTDMHGDSEYNIMFGPDICGPGTKKVHVIFNYKGKNVLINKDIRCKDDEFTHLYTLIVRPDNTYEVKIDNSQVESGSLEDDWDFLPPKKIKDPDASKPEDWDERAKIDDPTDSKPEDWDKPEHIPDPDAKKPEDWDEEMDGEWEPPVIQNPEYKGEWKPRQIDNPDYKGTWIHPEIDNPEYSPDPSIYAYDNFGVLGLDLWQVKSGTIFDNFLITNDEAYAEEFGNETWGVTKAAEKQMKDKQDEEQRLKEEEEDKKRKEEEEAEDKEDDEDKDEDEEDEEDKEEDEEEDVPGQAKDEL
glycan array binding signal (z-score) (Fuc(a1-2)Gal): 0.561
glycan array binding signal (z-score) (Fuc(a1-2)Gal(b1-3)GalNAc): -0.346
glycan array binding signal (z-score) [1]: 0.26
glycan array binding signal (z-score) [2]: -0.392
glycan array binding signal (z-score) [3]: -0.496
glycan array binding signal (z-score) [4]: -0.241
glycan array binding signal (z-score) [5]: -0.178
glycan array binding signal (z-score) (Fuc(a1-2)Gal(b1-3)GlcNAc): -0.03
glycan array binding signal (z-score) [6]: 0.505
glycan array binding signal (z-score) [7]: 0.015
glycan array binding signal (z-score) [8]: -0.399
glycan array binding signal (z-score) [9]: 0.011
glycan array binding signal (z-score) [10]: -0.305
glycan array binding signal (z-score) [11]: -0.314
glycan array binding signal (z-score) [12]: 0.889
glycan array binding signal (z-score) [13]: -0.726
glycan array binding signal (z-score) [14]: 0.906
glycan array binding signal (z-score) [15]: 0.199
glycan array binding signal (z-score) [16]: 1.31
glycan array binding signal (z-score) [17]: 0.432
glycan array binding signal (z-score) [18]: 0.15
glycan array binding signal (z-score) [19]: -0.431
glycan array binding signal (z-score) [20]: 0.054
glycan array binding signal (z-score) [21]: 1.49
glycan array binding signal (z-score) (Fuc(a1-2)Gal(b1-4)Glc): -0.194
glycan array binding signal (z-score) (Fuc(a1-2)Gal(b1-4)Glc6S): 0.223
glycan array binding signal (z-score) (Fuc(a1-2)Gal(b1-4)GlcNAc): 0.568
glycan array binding signal (z-score) [22]: -0.238
glycan array binding signal (z-score) [23]: 0.26
glycan array binding signal (z-score) [24]: 0.226
glycan array binding signal (z-score) [25]: 0.144
glycan array binding signal (z-score) [26]: -0.062
glycan array binding signal (z-score) [27]: -0.387
glycan array binding signal (z-score) [28]: 0.079
glycan array binding signal (z-score) [29]: -0.352
glycan array binding signal (z-score) [30]: -0.099
glycan array binding signal (z-score) [31]: 0.038
